Residue numbers refer to the chain shown, from its start. Names may count otherwise. No constants are given. Whether binding was seen depends on the method and setting.
Legend:
Assay in all cases: SEC; Superdex G200; 10 mM Tris/HCl pH 7.6, 100 mM NaCl, 5 mM MgCl2, 5 mM DTT; 200 ug protein injected, 0.4 mL/min; 0.4 mL fractions analysed by TMPK activity and Western blot; size markers BSA, ovalbumin, cytochrome C; both purified
[1] = target: human TMPK P81L mutant (human) (UniProt P23919)
[2] = target: human TMPK A99T mutant (human) (UniProt P23919)
[3] = target: human TMPK D128N mutant (human) (UniProt P23919)

B1: human TMPK P81L mutant (enzyme, UniProt P23919 1-212)
chain: MAARRGALIVLEGVDRAGKSTQSRKLVEALCAAGHRAELLRFPERSTEIGKLLSSYLQKKSDVEDHSVHLLFSANRWEQVLLIKEKLSQGVTLVVDRYAFSGVAFTGAKENFSLDWCKQPDVGLPKPDLVLFLQLQLADAAKRGAFGHERYENGAFQERALRCFHQLMKDTTLNWKMVDASKSIEAVHEDIRVLSEDAIRTATEKPLGELWK
- binding [1]: no binding (tested: 200 μg injected)

B2: human TMPK A99T mutant (enzyme, UniProt P23919 1-212)
chain: B1 chain with L81P, A99T
- binding [2]: no binding (tested: 200 μg injected)

B3: human TMPK D128N mutant (enzyme, UniProt P23919 1-212)
chain: B1 chain with L81P, D128N
- binding [3]: no binding (tested: 200 μg injected)
